This is one part of the list.
Compound: CC1=C(C2=C(C=C1)C(=O)C3=CC=CC=C3N2CCCN)C
Assay: log2 fold change, soluble protein after heating vs DMSO (PISA); higher = thermal stabilisation; K562 lysate, 10 uM; active = over 0.2 and 3.5 SD of the protein, either way, in both replicates (recomputed)
Outline: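 Pellets of K562 cells were dounce-homogenised in PBS pH 7.4 with 1 mM MgCl2, and the crude extract was held at 1 mg/mL protein for a 30 min treatment with 10 μM compound. Aliquots were heated for 3 min over 48°C-58°C and pooled before NP-40 was added to 0.5% at 4°C. The supernatant from 21,000xg for 90 min was quantified by TMTpro 16plex LC-MS/MS with channel sums equalised. Values are reported from duplicates as log-two fold change in thermal stability relative to solvent controls.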

By UniProt entry, the sequences of proteins in these tests, tags left out. Where a name states a change or a piece, a line headed by the entry shows the natural chain unless it says otherwise.
UniProt Q16342: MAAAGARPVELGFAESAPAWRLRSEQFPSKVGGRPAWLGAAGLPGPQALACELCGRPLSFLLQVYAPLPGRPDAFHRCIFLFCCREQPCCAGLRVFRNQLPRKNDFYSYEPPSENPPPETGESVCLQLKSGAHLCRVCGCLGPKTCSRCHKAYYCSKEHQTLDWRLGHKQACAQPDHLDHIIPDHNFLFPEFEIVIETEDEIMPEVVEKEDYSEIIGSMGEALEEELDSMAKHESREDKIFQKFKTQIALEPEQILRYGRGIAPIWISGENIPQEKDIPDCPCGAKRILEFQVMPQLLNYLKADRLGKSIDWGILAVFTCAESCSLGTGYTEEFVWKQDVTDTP
UniProt P18669: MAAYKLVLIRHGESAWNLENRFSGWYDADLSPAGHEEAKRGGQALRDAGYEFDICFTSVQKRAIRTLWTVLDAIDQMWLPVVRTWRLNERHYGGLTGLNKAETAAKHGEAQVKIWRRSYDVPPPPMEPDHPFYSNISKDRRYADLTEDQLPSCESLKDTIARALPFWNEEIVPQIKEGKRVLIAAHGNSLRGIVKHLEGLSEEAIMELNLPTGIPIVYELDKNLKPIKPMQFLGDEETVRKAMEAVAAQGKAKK
UniProt P11498: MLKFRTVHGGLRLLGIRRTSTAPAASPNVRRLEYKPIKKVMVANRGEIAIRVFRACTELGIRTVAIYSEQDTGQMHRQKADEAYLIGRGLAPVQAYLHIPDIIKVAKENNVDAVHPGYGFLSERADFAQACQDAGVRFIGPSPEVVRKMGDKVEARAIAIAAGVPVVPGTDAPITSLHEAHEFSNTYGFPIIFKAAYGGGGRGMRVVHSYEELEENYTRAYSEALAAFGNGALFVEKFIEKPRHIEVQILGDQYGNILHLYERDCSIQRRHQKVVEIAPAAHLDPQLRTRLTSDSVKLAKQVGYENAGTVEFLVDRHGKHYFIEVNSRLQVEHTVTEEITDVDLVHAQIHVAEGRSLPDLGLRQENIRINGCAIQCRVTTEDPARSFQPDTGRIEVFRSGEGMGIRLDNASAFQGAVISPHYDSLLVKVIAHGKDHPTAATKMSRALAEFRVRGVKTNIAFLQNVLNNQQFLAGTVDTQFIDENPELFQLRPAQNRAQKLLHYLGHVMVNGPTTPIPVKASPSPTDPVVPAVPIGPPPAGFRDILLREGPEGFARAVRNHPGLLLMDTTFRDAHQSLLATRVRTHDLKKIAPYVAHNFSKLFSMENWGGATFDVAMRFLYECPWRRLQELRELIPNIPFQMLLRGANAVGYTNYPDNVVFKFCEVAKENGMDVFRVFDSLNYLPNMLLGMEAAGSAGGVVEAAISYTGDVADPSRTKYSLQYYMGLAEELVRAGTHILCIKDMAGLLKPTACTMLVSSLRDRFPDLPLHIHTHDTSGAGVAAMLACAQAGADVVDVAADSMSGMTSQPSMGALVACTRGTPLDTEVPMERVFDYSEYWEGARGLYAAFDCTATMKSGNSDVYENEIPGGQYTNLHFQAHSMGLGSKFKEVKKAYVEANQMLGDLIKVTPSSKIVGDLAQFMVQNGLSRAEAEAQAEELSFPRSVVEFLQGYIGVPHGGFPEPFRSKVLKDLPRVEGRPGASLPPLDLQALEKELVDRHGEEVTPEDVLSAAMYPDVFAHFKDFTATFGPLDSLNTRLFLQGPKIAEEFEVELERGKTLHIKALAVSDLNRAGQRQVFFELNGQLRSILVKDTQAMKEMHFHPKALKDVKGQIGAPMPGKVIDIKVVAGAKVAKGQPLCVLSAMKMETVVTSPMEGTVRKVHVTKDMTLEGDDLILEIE
UniProt O15212, whole entry, looked up: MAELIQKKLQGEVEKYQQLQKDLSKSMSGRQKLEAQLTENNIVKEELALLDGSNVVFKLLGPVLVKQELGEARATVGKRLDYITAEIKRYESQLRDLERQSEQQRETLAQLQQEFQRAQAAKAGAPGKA
UniProt Q99471, whole entry, looked up: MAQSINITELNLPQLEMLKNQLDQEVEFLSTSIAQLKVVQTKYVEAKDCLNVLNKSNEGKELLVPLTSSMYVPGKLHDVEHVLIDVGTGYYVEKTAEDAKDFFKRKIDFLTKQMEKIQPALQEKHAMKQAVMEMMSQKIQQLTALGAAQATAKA
UniProt P17858: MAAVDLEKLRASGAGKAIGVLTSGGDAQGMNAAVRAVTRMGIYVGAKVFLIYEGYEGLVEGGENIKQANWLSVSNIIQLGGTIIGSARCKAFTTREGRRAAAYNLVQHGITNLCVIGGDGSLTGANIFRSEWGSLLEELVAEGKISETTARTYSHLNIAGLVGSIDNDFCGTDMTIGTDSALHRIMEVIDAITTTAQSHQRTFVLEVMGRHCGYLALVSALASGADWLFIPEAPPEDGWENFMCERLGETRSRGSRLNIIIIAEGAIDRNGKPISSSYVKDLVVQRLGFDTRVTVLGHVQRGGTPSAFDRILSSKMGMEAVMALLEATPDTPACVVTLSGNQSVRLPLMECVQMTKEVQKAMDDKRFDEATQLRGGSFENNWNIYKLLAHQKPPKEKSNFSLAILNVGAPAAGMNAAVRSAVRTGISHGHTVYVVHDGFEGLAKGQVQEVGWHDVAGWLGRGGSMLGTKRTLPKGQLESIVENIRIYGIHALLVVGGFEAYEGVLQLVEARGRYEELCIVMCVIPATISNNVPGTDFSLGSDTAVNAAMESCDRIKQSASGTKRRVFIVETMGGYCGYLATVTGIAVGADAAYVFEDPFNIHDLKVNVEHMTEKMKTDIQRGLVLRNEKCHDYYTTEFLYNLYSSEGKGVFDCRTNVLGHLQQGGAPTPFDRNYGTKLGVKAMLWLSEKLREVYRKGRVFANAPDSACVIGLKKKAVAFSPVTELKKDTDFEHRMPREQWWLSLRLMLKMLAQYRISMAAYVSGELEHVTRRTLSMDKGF
UniProt P61457: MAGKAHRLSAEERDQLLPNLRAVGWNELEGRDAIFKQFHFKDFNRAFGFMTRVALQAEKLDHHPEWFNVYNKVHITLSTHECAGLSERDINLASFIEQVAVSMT
UniProt Q9UGN5: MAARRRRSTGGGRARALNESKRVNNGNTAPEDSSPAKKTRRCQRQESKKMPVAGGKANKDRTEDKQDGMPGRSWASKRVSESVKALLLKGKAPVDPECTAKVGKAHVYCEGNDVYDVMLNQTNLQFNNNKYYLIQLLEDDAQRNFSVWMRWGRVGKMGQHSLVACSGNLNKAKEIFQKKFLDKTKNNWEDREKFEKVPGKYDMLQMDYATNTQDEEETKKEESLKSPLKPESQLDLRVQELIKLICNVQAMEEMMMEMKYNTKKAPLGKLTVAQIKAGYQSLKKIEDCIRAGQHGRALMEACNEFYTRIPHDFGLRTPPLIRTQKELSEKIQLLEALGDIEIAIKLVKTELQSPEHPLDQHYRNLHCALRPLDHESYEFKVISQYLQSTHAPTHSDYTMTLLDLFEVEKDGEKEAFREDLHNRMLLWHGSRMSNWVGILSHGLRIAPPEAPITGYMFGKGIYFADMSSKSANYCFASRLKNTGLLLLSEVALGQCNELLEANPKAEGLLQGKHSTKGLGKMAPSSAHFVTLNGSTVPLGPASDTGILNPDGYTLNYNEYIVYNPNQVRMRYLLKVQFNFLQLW
UniProt Q8IZL8: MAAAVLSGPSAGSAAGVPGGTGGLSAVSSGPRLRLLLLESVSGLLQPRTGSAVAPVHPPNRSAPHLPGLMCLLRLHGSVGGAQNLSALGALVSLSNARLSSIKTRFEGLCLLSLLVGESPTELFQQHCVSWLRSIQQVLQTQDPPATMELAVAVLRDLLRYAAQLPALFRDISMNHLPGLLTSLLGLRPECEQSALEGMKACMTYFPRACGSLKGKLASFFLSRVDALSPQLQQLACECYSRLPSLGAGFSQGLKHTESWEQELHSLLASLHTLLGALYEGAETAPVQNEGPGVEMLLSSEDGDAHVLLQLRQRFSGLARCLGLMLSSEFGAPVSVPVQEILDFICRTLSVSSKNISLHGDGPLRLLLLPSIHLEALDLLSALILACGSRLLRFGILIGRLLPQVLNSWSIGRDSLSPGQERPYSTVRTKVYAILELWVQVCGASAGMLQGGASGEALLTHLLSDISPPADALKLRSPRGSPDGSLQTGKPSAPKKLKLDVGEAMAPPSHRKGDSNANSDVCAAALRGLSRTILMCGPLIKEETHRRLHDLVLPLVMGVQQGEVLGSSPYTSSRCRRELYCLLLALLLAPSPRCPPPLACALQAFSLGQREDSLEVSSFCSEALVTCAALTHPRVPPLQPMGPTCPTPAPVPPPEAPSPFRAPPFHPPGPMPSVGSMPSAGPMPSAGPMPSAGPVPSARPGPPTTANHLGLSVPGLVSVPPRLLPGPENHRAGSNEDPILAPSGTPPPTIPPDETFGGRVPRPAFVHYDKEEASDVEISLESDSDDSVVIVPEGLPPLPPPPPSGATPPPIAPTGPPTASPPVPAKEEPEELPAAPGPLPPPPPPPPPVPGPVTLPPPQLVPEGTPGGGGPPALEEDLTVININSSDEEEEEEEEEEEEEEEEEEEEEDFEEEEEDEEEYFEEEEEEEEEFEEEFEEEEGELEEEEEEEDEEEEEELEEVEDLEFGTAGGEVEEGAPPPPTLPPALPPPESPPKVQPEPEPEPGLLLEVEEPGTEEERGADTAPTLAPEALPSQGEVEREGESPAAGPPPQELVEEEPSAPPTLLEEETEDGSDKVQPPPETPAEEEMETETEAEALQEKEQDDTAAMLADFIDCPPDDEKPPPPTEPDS
UniProt Q9H2J4: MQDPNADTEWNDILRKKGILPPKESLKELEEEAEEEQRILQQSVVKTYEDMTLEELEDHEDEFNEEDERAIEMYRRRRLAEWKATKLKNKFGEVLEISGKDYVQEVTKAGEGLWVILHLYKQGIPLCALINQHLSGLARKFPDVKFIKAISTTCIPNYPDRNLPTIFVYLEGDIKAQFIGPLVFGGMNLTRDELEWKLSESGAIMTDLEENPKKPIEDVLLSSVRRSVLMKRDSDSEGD
UniProt Q9HBH1: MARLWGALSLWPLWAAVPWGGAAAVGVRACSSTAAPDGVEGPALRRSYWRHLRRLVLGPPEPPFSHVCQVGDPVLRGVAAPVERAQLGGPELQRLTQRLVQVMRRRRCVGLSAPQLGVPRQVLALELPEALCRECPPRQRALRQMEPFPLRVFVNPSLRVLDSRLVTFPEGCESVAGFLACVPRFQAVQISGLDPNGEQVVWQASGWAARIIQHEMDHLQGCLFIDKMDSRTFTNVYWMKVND
UniProt Q6ZW49, whole entry, looked up: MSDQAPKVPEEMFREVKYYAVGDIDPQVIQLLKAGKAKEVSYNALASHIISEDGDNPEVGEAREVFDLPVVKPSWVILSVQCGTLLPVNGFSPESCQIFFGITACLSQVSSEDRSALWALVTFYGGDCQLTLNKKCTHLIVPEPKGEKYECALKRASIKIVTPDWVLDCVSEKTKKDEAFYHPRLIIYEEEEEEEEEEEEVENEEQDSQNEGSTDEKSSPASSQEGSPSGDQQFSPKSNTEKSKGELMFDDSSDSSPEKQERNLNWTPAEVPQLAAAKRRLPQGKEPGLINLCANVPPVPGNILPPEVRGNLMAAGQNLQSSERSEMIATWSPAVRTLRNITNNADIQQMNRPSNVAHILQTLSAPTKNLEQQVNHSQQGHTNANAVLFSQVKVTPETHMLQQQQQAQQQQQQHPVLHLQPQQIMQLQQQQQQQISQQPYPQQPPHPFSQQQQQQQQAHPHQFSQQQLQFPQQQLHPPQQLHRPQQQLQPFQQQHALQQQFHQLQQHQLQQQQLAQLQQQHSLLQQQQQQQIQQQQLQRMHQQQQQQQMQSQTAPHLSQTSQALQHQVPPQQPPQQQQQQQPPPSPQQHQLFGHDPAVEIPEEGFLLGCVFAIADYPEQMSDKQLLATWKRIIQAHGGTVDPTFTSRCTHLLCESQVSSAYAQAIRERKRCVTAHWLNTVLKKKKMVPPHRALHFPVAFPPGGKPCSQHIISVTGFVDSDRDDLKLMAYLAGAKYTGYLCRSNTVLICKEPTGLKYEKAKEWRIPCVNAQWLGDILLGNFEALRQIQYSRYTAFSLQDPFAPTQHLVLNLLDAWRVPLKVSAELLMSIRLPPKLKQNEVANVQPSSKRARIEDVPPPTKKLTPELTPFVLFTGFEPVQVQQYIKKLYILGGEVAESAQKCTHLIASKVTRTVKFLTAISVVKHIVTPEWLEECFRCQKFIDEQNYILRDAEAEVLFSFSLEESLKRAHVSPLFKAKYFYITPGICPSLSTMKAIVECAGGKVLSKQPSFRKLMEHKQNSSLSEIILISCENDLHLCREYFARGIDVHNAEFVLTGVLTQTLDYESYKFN
UniProt Q8N5Y8: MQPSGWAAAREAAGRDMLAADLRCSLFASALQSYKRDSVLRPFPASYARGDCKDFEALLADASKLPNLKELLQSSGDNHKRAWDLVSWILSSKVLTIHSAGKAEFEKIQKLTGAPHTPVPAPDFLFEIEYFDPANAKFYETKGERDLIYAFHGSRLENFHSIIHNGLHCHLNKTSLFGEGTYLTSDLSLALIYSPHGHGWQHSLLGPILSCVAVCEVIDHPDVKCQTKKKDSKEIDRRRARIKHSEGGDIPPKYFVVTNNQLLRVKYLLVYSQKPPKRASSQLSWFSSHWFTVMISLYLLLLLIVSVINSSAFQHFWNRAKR

Target	log2 fold change
PDCD2 (UniProt Q16342)	inactive: -0.019
PGAM1 (UniProt P18669)	inactive: -0.028
PDCD6IP isoform 2 (UniProt Q8WUM4)	inactive: 0.046
PC (UniProt P11498)	inactive: -0.016
PCBP2 isoform 3 (UniProt Q15366)	inactive: 0.06
PCIF1 (UniProt Q9H4Z3)	inactive: 0.037
PFDN6 (UniProt O15212)	inactive: -0.02
PCYT1A (UniProt P49585)	inactive: 0.024
PCBP3 (UniProt P57721)	inactive: -0.006
PDS5B (UniProt Q9NTI5)	inactive: 0.006
PEBP1 (UniProt P30086)	inactive: 0.016
PAXX (UniProt Q9BUH6)	inactive: -0.036
PFDN5 (UniProt Q99471)	inactive: -0.023
PGAM5 (UniProt Q96HS1)	inactive: 0.009
PEX11B (UniProt O96011)	inactive: 0
PFKL isoform 2 (UniProt P17858)	inactive: -0.02
PEPD (UniProt P12955)	inactive: 0.02

Some values from the entries so far.
Under log2 fold change, PAXX (UniProt Q9BUH6) has inactive: -0.036
Under log2 fold change, PDCD2 (UniProt Q16342) has inactive: -0.019
Under log2 fold change, PEPD (UniProt P12955) has inactive: 0.02

Next part.

Target	log2 fold change
PEX13 (UniProt Q92968)	inactive: -0.034
PCBD1 (UniProt P61457)	inactive: -0.05
PARN (UniProt O95453)	inactive: -0.004
PARP2 (UniProt Q9UGN5)	inactive: 0.108
PELP1 (UniProt Q8IZL8)	inactive: -0.046
PDCD10 (UniProt Q9BUL8)	inactive: 0.016
PDXDC1 (UniProt Q6P996)	inactive: -0.024
PDCL3 (UniProt Q9H2J4)	inactive: -0.027
PDF (UniProt Q9HBH1)	inactive: 0.07
PAXIP1 (UniProt Q6ZW49)	inactive: -0.005
PARP14 (UniProt Q460N5)	inactive: 0.011
PDXP (UniProt Q96GD0)	inactive: 0.01
PDE12 (UniProt Q6L8Q7)	inactive: 0.011
PARP16 isoform 3 (UniProt Q8N5Y8)	inactive: -0.078
PFAS (UniProt O15067)	inactive: -0.003
PDPR (UniProt Q8NCN5)	inactive: 0.009
